# Assay results from the supplement of paper PMC10849652.
# The chains behind the UniProt entries cited, without tags or fusion partners. Where a name states a change or a piece, a line headed by the entry shows the natural chain unless it says otherwise.
# UniProt Q12849: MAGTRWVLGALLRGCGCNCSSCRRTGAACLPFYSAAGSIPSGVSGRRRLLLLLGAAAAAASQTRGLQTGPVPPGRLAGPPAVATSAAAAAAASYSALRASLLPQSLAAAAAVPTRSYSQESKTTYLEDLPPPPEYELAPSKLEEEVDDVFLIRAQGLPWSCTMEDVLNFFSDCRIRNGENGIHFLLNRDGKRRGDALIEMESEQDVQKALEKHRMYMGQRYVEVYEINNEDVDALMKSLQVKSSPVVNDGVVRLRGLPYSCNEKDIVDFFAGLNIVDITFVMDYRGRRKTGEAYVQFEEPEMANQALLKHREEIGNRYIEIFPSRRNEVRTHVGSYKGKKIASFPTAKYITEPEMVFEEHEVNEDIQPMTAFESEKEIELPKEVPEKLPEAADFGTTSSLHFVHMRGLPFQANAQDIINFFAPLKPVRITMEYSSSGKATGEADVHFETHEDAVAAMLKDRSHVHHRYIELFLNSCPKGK
# UniProt P32780: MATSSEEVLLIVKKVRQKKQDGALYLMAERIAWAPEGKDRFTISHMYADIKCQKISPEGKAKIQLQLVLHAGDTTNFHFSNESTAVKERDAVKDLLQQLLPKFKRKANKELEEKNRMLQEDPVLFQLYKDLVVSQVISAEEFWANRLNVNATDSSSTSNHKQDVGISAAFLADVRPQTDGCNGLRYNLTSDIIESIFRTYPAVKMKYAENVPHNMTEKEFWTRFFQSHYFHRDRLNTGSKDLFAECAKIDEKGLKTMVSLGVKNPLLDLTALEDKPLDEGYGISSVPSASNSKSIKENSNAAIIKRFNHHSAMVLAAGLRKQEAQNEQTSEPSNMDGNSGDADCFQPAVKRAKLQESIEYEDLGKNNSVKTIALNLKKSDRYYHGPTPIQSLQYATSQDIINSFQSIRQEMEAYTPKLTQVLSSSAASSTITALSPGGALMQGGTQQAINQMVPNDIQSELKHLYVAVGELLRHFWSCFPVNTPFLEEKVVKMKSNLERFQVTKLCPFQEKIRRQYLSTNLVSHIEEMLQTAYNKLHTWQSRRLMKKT
# UniProt P00390: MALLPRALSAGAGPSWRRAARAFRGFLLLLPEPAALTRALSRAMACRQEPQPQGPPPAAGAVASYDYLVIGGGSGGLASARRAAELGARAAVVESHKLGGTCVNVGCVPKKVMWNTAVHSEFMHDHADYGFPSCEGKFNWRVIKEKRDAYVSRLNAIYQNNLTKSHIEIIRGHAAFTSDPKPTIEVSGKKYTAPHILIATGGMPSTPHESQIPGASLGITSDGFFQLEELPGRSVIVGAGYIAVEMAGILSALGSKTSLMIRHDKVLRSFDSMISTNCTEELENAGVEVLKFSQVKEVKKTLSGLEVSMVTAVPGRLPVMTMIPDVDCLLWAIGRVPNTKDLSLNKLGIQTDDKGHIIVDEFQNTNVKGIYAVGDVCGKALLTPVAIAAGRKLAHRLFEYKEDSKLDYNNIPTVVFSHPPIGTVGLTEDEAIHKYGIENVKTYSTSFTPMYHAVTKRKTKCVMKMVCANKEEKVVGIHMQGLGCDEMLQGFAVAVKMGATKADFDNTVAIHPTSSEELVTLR
# UniProt A4D1E9: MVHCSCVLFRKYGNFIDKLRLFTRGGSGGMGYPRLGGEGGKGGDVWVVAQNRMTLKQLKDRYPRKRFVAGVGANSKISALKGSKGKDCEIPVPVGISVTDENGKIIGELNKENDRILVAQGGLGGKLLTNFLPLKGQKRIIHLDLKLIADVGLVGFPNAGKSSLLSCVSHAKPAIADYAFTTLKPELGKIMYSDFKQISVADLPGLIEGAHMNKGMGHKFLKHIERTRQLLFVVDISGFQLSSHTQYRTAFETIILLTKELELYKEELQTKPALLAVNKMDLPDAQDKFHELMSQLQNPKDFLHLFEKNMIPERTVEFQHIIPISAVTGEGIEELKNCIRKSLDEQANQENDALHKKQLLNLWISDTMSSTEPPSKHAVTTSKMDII
# UniProt P51610: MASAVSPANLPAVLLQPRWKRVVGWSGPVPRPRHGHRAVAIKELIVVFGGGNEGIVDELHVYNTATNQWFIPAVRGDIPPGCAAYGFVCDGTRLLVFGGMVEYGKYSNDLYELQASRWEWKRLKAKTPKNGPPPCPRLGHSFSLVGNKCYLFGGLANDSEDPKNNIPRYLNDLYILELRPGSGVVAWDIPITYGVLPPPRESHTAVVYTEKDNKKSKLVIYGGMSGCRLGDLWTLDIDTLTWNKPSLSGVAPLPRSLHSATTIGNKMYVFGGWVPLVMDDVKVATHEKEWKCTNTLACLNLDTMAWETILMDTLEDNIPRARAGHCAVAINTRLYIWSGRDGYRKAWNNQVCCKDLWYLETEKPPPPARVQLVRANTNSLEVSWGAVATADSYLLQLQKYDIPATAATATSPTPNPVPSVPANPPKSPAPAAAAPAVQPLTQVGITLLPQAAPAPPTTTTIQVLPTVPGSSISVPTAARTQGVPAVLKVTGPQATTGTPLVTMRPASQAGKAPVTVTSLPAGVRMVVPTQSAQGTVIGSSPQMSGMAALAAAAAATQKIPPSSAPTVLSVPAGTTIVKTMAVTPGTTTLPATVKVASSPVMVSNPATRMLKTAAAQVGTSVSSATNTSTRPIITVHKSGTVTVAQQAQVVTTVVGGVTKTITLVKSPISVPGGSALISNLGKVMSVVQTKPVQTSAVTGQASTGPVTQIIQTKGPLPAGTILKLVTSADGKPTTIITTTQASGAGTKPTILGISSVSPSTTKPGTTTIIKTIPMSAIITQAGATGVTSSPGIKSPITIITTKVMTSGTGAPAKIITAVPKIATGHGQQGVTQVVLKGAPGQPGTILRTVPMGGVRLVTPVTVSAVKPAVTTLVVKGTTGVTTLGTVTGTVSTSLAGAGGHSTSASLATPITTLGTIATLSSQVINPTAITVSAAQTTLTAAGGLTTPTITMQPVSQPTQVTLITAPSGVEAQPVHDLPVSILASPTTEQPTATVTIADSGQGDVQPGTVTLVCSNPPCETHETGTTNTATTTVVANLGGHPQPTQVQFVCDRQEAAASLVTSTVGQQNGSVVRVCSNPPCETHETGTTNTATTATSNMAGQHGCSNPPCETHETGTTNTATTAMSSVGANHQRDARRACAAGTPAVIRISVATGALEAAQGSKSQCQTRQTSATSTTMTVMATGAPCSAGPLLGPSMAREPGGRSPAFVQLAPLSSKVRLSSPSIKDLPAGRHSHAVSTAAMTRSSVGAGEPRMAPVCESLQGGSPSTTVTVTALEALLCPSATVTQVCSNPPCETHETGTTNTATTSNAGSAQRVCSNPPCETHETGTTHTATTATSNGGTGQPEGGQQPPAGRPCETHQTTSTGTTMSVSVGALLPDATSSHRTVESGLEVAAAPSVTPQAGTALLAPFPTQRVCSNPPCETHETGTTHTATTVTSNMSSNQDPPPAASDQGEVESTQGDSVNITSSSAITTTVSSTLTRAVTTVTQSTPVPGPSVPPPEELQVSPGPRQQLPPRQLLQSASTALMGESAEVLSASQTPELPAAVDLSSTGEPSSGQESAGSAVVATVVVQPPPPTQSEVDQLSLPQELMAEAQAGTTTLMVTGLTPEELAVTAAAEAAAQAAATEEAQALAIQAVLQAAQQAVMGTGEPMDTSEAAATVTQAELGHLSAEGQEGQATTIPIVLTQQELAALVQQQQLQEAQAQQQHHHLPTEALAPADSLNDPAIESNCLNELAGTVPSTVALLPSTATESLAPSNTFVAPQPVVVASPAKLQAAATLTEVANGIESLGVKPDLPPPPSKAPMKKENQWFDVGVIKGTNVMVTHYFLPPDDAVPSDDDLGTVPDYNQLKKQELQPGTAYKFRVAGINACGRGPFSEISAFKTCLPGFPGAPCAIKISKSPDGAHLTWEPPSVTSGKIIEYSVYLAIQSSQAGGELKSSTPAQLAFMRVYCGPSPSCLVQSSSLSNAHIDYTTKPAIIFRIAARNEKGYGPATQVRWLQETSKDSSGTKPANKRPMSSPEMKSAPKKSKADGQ
# UniProt O00178: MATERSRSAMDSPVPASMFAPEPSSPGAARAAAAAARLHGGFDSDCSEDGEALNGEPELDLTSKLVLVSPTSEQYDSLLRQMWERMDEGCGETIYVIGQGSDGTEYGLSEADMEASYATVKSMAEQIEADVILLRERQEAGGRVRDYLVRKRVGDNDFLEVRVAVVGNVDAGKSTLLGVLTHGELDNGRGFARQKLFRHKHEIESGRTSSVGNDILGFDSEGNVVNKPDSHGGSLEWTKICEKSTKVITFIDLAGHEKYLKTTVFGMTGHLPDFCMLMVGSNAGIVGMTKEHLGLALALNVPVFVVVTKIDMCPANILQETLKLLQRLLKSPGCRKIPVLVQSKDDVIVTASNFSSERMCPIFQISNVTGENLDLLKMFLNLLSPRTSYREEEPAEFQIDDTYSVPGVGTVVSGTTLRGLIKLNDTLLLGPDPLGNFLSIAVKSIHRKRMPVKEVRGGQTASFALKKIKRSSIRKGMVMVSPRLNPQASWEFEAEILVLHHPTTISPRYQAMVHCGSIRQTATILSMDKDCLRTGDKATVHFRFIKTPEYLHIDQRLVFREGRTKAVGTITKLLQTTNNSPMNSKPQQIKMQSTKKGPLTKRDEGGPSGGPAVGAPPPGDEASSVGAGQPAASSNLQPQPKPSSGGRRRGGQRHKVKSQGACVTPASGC
# UniProt P21266: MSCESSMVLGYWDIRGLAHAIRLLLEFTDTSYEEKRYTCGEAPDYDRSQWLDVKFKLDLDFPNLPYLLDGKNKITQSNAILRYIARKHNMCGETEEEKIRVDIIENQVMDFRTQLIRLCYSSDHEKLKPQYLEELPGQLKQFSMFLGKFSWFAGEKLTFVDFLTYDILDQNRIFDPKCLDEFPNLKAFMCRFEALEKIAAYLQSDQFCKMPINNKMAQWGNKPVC
# UniProt Q9NVX0: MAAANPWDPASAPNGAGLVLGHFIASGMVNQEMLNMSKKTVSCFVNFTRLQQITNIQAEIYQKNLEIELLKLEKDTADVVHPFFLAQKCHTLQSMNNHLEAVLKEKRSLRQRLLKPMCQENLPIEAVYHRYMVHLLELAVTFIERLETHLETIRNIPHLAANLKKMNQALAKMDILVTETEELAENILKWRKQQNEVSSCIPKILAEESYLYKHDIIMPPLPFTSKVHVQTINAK
# UniProt Q9HAV7: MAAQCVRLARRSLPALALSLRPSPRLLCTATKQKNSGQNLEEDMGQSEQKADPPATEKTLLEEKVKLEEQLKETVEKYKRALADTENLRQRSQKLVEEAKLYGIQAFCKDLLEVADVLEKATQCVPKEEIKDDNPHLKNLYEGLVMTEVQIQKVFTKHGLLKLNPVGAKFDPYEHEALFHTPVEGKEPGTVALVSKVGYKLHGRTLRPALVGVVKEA
# UniProt Q9H6D7: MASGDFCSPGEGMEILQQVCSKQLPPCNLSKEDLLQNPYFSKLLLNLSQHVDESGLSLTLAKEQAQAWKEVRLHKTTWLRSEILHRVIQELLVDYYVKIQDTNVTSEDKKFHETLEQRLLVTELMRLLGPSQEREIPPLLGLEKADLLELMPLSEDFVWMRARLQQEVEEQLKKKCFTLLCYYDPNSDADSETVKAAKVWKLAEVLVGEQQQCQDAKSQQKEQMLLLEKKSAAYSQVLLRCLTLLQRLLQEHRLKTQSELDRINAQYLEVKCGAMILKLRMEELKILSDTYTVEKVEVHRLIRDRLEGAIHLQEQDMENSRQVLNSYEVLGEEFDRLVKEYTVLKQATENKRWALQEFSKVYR
# UniProt Q9BY41: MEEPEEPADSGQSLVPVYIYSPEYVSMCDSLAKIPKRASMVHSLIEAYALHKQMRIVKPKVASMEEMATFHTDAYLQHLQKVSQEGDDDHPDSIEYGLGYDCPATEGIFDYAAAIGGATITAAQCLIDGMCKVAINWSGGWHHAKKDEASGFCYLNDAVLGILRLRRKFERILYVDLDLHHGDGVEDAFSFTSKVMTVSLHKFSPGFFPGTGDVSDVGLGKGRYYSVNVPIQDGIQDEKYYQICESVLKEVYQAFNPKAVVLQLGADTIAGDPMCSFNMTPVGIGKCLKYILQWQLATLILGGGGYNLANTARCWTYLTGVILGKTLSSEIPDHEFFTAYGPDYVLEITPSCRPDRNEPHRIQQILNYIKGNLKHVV
# UniProt P02042: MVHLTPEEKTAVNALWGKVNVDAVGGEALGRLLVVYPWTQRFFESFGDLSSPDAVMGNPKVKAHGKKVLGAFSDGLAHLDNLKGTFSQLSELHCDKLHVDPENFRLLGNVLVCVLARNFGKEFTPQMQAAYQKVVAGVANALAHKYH
# UniProt P52655, whole entry, looked up: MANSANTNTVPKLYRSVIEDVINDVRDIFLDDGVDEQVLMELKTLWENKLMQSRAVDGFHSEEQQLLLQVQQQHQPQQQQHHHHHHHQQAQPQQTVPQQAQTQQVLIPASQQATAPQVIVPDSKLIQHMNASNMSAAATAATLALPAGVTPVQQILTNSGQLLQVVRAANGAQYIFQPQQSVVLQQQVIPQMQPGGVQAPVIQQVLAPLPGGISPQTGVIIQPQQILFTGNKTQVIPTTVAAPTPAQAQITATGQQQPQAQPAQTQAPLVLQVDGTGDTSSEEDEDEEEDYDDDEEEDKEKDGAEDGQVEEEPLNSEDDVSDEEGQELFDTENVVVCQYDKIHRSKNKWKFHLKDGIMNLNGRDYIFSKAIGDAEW
# The list shows a part of the results.
# Assays:
# Experiment in all cases: log2 fold change, soluble protein after heating vs DMSO (PISA); higher = thermal stabilisation; K562 lysate, 10 uM; active = over 0.2 and 3.5 SD of the protein, either way, in both replicates (recomputed)
# [1] = compound: CN1CC[C@H](c2c(O)cc(O)c3c(=O)cc(-c4ccccc4Cl)oc23)[C@H](O)C1 [alvocidib]
# Outline: (§1)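 Pellets of K562 cells were dounce-homogenised in PBS pH 7.4 with 1 mM MgCl2, and the crude extract was held at 1 mg/mL protein for a 30 min treatment with 10 μM compound. Aliquots were heated for 3 min over 48°C-58°C and pooled before NP-40 was added to 0.5% at 4°C. The supernatant from 21,000xg for 90 min was quantified by TMTpro 16plex LC-MS/MS with channel sums equalised. Values are reported from duplicates as log-two fold change in thermal stability relative to solvent controls.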
# [2] = compound: CN1CCc2c(c3ccccc3n2Cc2ccc(C(=O)NO)cc2)C1 [Tubastatin A]
# Outline: as §1
# [3] = compound: CNC(=O)C1=CC=CC=C1NC2=NC(=NC=C2Cl)NC3=C(C=C(C=C3)N4CCOCC4)OC
# Outline: as §1
# [4] = compound: CNC(=O)c1ccc(Nc2ncc(C(F)(F)F)c(NCc3nccnc3N(C)S(C)(=O)=O)n2)cc1 [defactinib]
# Outline: as §1
# [5] = compound: CNc1nc(-c2ccc3c(N)n[nH]c3c2)cc(N2C[C@@H](C(=O)NC3CCCCC3)CC[C@H]2C)n1
# Outline: as §1
# [6] = compound: COC(=O)N[C@@H](C)CNc1nccc(-c2cn(C(C)C)nc2-c2cc(Cl)cc(NS(C)(=O)=O)c2F)n1 [encorafenib]
# Outline: as §1
# [7] = compound: COC(=O)[C@H](CCSC)NC(=O)C1=C(C=C(C=C1)NC[C@H](CS)N)C2=CC=CC=C2
# Outline: as §1
# [8] = compound: COc1cc(Nc2ncc3c(n2)-c2ccc(Cl)cc2C(c2c(F)cccc2OC)=NC3)ccc1C(=O)O [alisertib]
# Outline: as §1
# [9] = compound: COc1cc2nc(-c3cc(F)ccc3O)nc(N[C@@H]3CNC[C@H]3C(C)(C)O)c2cc1OC
# Outline: as §1
# [10] = compound: COc1cc2ncnc(Nc3ccc(F)c(Cl)c3)c2cc1OCCCN1CCOCC1 [gefitinib]
# Outline: as §1
Target,log2 fold change [1],log2 fold change [2],log2 fold change [3],log2 fold change [4],log2 fold change [5],log2 fold change [6],log2 fold change [7],log2 fold change [8],log2 fold change [9],log2 fold change [10]
HADHA (UniProt P40939),inactive: -0.011,inactive: -0.003,inactive: 0.069,inactive: -0.042,inactive: 0.037,inactive: -0.063,inactive: 0.088,inactive: -0.017,inactive: -0.041,inactive: 0.021
GTF3C2 (UniProt Q8WUA4),inactive: -0.007,inactive: -0.103,inactive: 0.034,inactive: 0.026,inactive: 0.025,inactive: -0.041,inactive: 0.057,inactive: 0.029,inactive: 0.037,inactive: 0.008
GRSF1 (UniProt Q12849),inactive: -0.011,inactive: -0.008,inactive: -0.033,inactive: -0.001,inactive: 0.009,inactive: 0.011,inactive: -0.001,inactive: -0.019,inactive: -0.064,inactive: 0.021
GTF2H1 (UniProt P32780),inactive: -0.053,inactive: -0.023,inactive: 0.05,inactive: 0.041,inactive: 0.031,inactive: -0.004,inactive: -0.059,inactive: 0.065,inactive: -0.021,inactive: -0.015
GSR (UniProt P00390),inactive: -0.001,inactive: 0.036,inactive: 0.023,inactive: 0.028,inactive: 0.068,inactive: -0.011,inactive: -0.07,inactive: -0.002,inactive: -0.015,inactive: -0.003
HAUS7 isoform 2 (UniProt Q99871),inactive: 0.001,inactive: -0.128,inactive: 0.021,inactive: -0.045,inactive: -0.021,inactive: 0.024,inactive: 0.099,inactive: 0.031,inactive: -0.135,inactive: -0.043
GTPBP10 (UniProt A4D1E9),inactive: -0.011,inactive: -0.158,inactive: -0.04,inactive: 0.014,inactive: 0.016,inactive: -0.024,inactive: 0.226,inactive: -0.068,inactive: 0.017,inactive: -0.023
"GYPA, A0A2R8Y7F9",inactive: -0.218,–,–,–,–,–,–,–,–,–
HCFC1 isoform 4 (UniProt P51610),inactive: 0.013,inactive: 0.009,inactive: 0.007,inactive: 0.004,inactive: 0.03,inactive: -0.012,inactive: -0.039,inactive: -0.001,inactive: 0.009,inactive: -0.026
HBA1 (UniProt P69905),inactive: 0.145,inactive: 0.074,inactive: 0.032,inactive: 0.122,inactive: 0.031,inactive: 0.019,inactive: -0.042,inactive: 0.045,inactive: -0.028,inactive: -0.16
GYPC (UniProt P04921),inactive: 0.081,inactive: 0.271,inactive: 0.119,inactive: 0.052,inactive: 0.088,inactive: 0.03,inactive: -0.052,inactive: 0.076,inactive: 0.024,inactive: 0.099
GTPBP1 (UniProt O00178),inactive: 0,inactive: 0.006,inactive: 0.018,inactive: 0.018,inactive: 0.008,inactive: 0.003,inactive: 0.029,inactive: -0.005,inactive: -0.004,inactive: -0.025
GYG1 isoform 2 (UniProt P46976),inactive: 0.029,inactive: -0.01,inactive: -0.052,inactive: -0.053,inactive: 0.028,inactive: 0.069,inactive: -0.034,inactive: -0.005,inactive: 0.015,inactive: 0.084
GTF3A (UniProt Q92664),inactive: 0.06,inactive: 0.018,inactive: 0.043,inactive: 0.006,inactive: 0.021,inactive: -0.066,inactive: 0.094,inactive: -0.05,inactive: -0.026,inactive: -0.004
GSTM3 (UniProt P21266),inactive: 0.029,inactive: -0.085,inactive: -0.03,inactive: 0.011,inactive: -0.015,inactive: 0.02,inactive: 0.03,inactive: -0.088,inactive: -0.007,inactive: -0.084
H4C1 (UniProt P62805),inactive: -0.101,active: 0.373,inactive: -0.023,inactive: -0.02,active: 0.569,inactive: 0.038,inactive: 0.051,inactive: 0.018,inactive: 0.012,inactive: -0.008

Target,log2 fold change [1],log2 fold change [2],log2 fold change [3],log2 fold change [4],log2 fold change [5],log2 fold change [6],log2 fold change [7],log2 fold change [8],log2 fold change [9],log2 fold change [10]
HAUS2 (UniProt Q9NVX0),inactive: 0.069,inactive: -0.079,inactive: 0.041,inactive: -0.171,inactive: -0.047,inactive: 0.088,inactive: 0.043,inactive: -0.037,inactive: 0.014,inactive: -0.049
GPX4 (UniProt P36969),inactive: 0.031,inactive: -0.099,inactive: -0.006,inactive: 0.048,inactive: -0.051,inactive: 0.004,inactive: -0.023,inactive: 0.041,inactive: 0,inactive: 0.016
GTF2A2 (UniProt P52657),inactive: 0.006,inactive: 0.014,inactive: 0.029,inactive: 0.011,inactive: 0.055,inactive: 0.008,inactive: -0.024,inactive: 0.032,inactive: -0.008,inactive: -0.053
HBZ (UniProt P02008),inactive: 0.087,inactive: 0.059,inactive: 0.04,inactive: 0.107,inactive: 0.016,inactive: 0.042,inactive: -0.029,inactive: 0.011,inactive: -0.039,inactive: -0.18
GRPEL1 (UniProt Q9HAV7),inactive: -0.014,inactive: 0.005,inactive: -0.006,inactive: -0.023,inactive: 0.026,inactive: -0.033,inactive: -0.007,inactive: 0.015,inactive: 0.007,inactive: -0.01
HAUS4 (UniProt Q9H6D7),inactive: 0.007,inactive: -0.116,inactive: 0.007,inactive: 0.014,inactive: -0.005,inactive: 0.002,inactive: 0.012,inactive: 0.008,inactive: -0.017,inactive: -0.022
GSTO1 (UniProt P78417),inactive: 0.045,inactive: 0.032,inactive: -0.015,inactive: -0.01,inactive: -0.023,inactive: -0.007,inactive: -0.018,inactive: 0.002,inactive: -0.026,inactive: -0.007
GTSF1 (UniProt Q8WW33),inactive: -0.014,inactive: 0.046,inactive: 0.029,inactive: -0.012,inactive: 0.042,inactive: -0.009,inactive: -0.048,inactive: -0.016,inactive: 0.013,inactive: -0.034
GUF1 (UniProt Q8N442),inactive: -0.204,inactive: -0.058,inactive: 0.025,inactive: -0.019,inactive: 0.029,inactive: -0.051,inactive: 0.019,inactive: -0.006,inactive: 0.038,inactive: -0.115
HDAC8 (UniProt Q9BY41),inactive: 0.016,inactive: -0.002,inactive: 0.058,inactive: -0.109,inactive: -0.071,inactive: 0.002,inactive: 0.172,inactive: -0.015,inactive: 0.018,inactive: 0
HAUS1 (UniProt Q96CS2),inactive: 0.034,inactive: -0.047,inactive: 0.029,inactive: 0.022,inactive: -0.005,inactive: 0.023,inactive: -0.179,inactive: 0.026,inactive: -0.037,inactive: 0.005
HBD (UniProt P02042),inactive: 0.051,inactive: 0.083,inactive: 0.095,inactive: 0.036,inactive: 0.003,inactive: 0.027,inactive: -0.06,inactive: 0.031,inactive: 0.025,inactive: -0.146
GRPEL2 (UniProt Q8TAA5),inactive: -0.041,inactive: -0.038,inactive: 0.083,inactive: 0.007,inactive: 0.008,inactive: -0.08,inactive: 0.103,inactive: -0.045,inactive: -0.154,inactive: 0.03
GTF2A1 (UniProt P52655),inactive: 0.165,inactive: 0.006,inactive: -0.047,inactive: 0.033,inactive: 0.048,inactive: -0.005,inactive: -0.026,inactive: -0.029,inactive: -0.024,inactive: 0.008
HDAC10 (UniProt Q969S8),inactive: 0.033,active: 0.49,inactive: -0.075,inactive: -0.135,inactive: -0.014,inactive: 0.091,inactive: 0.08,inactive: 0.047,inactive: -0.006,inactive: 0.165

# Single records, from the list above. Values in the order: log2 fold change [1] | log2 fold change [2] | log2 fold change [3] | log2 fold change [4] | log2 fold change [5] | log2 fold change [6] | log2 fold change [7] | log2 fold change [8] | log2 fold change [9] | log2 fold change [10]
# HDAC10 (UniProt Q969S8) is listed with inactive: 0.033 | active: 0.49 | inactive: -0.075 | inactive: -0.135 | inactive: -0.014 | inactive: 0.091 | inactive: 0.08 | inactive: 0.047 | inactive: -0.006 | inactive: 0.165
# HAUS1 (UniProt Q96CS2) is listed with inactive: 0.034 | inactive: -0.047 | inactive: 0.029 | inactive: 0.022 | inactive: -0.005 | inactive: 0.023 | inactive: -0.179 | inactive: 0.026 | inactive: -0.037 | inactive: 0.005
